Publication PMC7975697
These are yes or no findings as the source states them, for the method shown. Binding seen in cells or lysates may run through a third protein. Some entries that bind do so weakly or less than the wild type.

The chains behind the UniProt entries cited, without tags or fusion partners.
UniProt P08727: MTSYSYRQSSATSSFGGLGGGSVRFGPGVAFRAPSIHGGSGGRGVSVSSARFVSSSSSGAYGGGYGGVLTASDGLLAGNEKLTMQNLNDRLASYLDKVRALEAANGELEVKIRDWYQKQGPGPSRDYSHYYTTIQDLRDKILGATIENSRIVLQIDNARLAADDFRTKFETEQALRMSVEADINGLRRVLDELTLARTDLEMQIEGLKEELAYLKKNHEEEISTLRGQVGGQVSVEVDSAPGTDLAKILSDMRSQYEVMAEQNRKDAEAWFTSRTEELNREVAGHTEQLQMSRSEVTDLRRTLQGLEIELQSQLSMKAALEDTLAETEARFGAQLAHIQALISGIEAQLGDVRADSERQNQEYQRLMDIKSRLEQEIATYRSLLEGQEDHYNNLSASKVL
UniProt P35222: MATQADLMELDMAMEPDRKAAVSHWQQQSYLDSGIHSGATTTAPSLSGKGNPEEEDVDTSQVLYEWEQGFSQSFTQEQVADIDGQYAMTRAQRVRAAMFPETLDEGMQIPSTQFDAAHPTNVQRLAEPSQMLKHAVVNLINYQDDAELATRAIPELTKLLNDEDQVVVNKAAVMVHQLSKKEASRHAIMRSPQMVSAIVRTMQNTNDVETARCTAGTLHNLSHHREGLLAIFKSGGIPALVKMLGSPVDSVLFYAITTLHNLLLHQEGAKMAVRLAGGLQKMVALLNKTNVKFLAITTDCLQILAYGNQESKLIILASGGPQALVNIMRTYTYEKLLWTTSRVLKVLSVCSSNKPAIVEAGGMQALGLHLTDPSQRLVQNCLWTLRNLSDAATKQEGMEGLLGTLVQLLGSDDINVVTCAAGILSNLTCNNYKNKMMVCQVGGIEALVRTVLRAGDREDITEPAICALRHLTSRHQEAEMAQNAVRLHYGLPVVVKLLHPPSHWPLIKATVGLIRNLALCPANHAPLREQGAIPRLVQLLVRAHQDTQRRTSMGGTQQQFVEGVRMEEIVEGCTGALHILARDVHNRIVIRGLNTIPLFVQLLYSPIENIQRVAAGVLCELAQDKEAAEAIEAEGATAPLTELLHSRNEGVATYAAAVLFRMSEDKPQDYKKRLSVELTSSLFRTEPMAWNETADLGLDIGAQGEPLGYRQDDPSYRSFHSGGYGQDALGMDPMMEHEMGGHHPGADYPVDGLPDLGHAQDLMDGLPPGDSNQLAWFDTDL

Target: KRT19 (Cytokeratin 19) (human (endogenous in Huh7 and MHCC-97H)) (UniProt P08727)
Assay: co-IP; Protein A/G Sepharose with antibodies specific for KRT19, β-catenin and RAC1, or normal IgG; lysates of KRT19 positive Huh7 and MHCC-97H cells; Western blotting

- binding: binds
Substance: β-catenin (from UniProt P35222 1-781)
